Publication doi:10.1101/2025.10.10.681713
Results are given in words; binding and its absence hold for the method and conditions named. In cells and extracts the contact can be indirect. Where a sequence is shown, tags or fusion partners need not be part of it.

The chains behind the UniProt entries cited, without tags or fusion partners.
UniProt Q6MZP7: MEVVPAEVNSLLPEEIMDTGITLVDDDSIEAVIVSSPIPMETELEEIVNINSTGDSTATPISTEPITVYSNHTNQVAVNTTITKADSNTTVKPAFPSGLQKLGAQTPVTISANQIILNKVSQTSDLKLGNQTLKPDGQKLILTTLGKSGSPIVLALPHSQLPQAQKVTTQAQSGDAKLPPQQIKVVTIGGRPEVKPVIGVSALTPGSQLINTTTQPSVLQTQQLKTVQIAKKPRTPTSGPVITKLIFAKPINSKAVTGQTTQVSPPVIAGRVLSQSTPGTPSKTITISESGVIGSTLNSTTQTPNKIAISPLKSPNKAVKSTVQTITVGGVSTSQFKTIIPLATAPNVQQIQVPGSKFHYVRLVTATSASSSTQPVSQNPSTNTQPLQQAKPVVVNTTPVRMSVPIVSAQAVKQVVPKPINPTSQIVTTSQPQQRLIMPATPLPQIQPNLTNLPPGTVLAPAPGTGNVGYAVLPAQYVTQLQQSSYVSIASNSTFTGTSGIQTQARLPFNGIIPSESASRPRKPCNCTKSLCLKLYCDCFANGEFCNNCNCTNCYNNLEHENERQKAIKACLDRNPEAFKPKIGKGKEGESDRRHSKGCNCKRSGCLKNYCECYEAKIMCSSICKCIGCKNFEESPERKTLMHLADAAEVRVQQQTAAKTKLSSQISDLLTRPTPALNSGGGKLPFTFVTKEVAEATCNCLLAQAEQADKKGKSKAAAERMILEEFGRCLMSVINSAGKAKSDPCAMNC

Target: LIN54 (human) (human (endogenous in RT112)) (UniProt Q6MZP7)
Assay: co-IP

B1: STAG2 (human) (protein, UniProt Q8N3U4 1-1231)
chain: MIAAPEIPTDFNLLQESETHFSSDTDFEDIEGKNQKQGKGKTCKKGKKGPAEKGKGGNGGGKPPSGPNRMNGHHQQNGVENMMLFEVVKMGKSAMQSVVDDWIESYKHDRDIALLDLINFFIQCSGCKGVVTAEMFRHMQNSEIIRKMTEEFDEDSGDYPLTMAGPQWKKFKSSFCEFIGVLVRQCQYSIIYDEYMMDTVISLLTGLSDSQVRAFRHTSTLAAMKLMTALVNVALNLSINMDNTQRQYEAERNKMIGKRANERLELLLQKRKELQENQDEIENMMNAIFKGVFVHRYRDAIAEIRAICIEEIGIWMKMYSDAFLNDSYLKYVGWTMHDKQGEVRLKCLTALQGLYYNKELNSKLELFTSRFKDRIVSMTLDKEYDVAVQAIKLLTLVLQSSEEVLTAEDCENVYHLVYSAHRPVAVAAGEFLYKKLFSRRDPEEDGMMKRRGRQGPNANLVKTLVFFFLESELHEHAAYLVDSMWDCATELLKDWECMNSLLLEEPLSGEEALTDRQESALIEIMLCTIRQAAECHPPVGRGTGKRVLTAKEKKTQLDDRTKITELFAVALPQLLAKYSVDAEKVTNLLQLPQYFDLEIYTTGRLEKHLDALLRQIRNIVEKHTDTDVLEACSKTYHALCNEEFTIFNRVDISRSQLIDELADKFNRLLEDFLQEGEEPDEDDAYQVLSTLKRITAFHNAHDLSKWDLFACNYKLLKTGIENGDMPEQIVIHALQCTHYVILWQLAKITESSSTKEDLLRLKKQMRVFCQICQHYLTNVNTTVKEQAFTILCDILMIFSHQIMSGGRDMLEPLVYTPDSSLQSELLSFILDHVFIEQDDDNNSADGQQEDEASKIEALHKRRNLLAAFCKLIVYTVVEMNTAADIFKQYMKYYNDYGDIIKETMSKTRQIDKIQCAKTLILSLQQLFNEMIQENGYNFDRSSSTFSGIKELARRFALTFGLDQLKTREAIAMLHKDGIEFAFKEPNPQGESHPPLNLAFLDILSEFSSKLLRQDKRTVYVYLEKFMTFQMSLRREDVWLPLMSYRNSLLAGGDDDTMSVISGISSRGSTVRSKKSKPSTGKRKVVEGMQLSLTEESSSSDSMWLSREQTLHTPVMMQTPQLTSTIMREPKRLRPEDSFMSVYPMQTEHHQTPLDYNRRGTSLMEDDEEPIVEDVMMSSEGRIEDLNEGMDFDTMDIDLPPSKNRRERTELKPDFFDPASIMDESVLGVSMF
binding: no binding
